# Laboratory results published in the supplement of paper PMC3334620.
# Over roughly 33,000 sequences, “E-score (-0.5 to 0.5)” has its median near -0.0014; the highest 2% begin near 0.25. The list shows a part of the results.
# Target: T1, Cad1 (UniProt P24813)
# T1 sequence: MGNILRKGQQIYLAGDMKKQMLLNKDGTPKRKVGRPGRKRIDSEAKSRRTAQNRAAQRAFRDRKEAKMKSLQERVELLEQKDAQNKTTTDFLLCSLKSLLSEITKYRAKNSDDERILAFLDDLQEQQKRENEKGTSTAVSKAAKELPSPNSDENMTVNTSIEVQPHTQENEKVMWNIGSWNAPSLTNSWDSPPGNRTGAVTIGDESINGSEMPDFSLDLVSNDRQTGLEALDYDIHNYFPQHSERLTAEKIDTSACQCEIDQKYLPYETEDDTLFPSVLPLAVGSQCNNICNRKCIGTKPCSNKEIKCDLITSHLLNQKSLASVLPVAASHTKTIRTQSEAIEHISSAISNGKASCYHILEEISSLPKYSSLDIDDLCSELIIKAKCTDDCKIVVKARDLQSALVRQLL
# Experiment: PBM E-score (8-mer binding enrichment) (E-score (-0.5 to 0.5)); higher = stronger / more preferred TF binding
# Conditions: protein concentration: 100 nM; construct: GST-full length
# How it was run: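 The E-score, a modified Wilcoxon-Mann-Whitney statistic, was computed by the Universal PBM Analysis Suite for every ungapped eight-base word pooled with its reverse complement. Scans behind it were normalised with masliner after bound GST-tagged yeast transcription factors were detected with fluorescent anti-GST. The proteins, at about 100-200 nM, had been applied to universal all-10-mer Agilent arrays made double-stranded by primer extension.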
row,Sequence,PBM E-score
1,AAATAGCA,0.036
2,CTCGCGGA,-0.155
3,CCATCCAG,-0.0345
4,ATTTCCAA,-0.03
5,GGATCCTA,-0.139
6,ATAGTGCA,0.192
7,ACTGCTAA,-0.114
8,AGCTCACA,-0.0541
9,CACTAGAC,-0.0989
10,GAGAACAA,0.148
11,ACTGACGC,-0.17
12,ATTCCACA,0.158
13,AAAGTCTA,-0.0301
14,CCCATCAA,0.0315
15,TGCTGCCA,-0.0292
16,CACCTTCC,-0.0223
17,GCCCCAGC,-0.0912
18,AAGTTCCC,-0.103
19,GTATAGGA,-0.174
20,GCGAAGGA,-0.182
21,AGGACTTG,-0.0585
22,CACTGCAA,0.0892
23,CCATAAGG,-0.231
24,TAAGGTCA,-0.077
25,AATCGGCG,-0.0003

row,Sequence,PBM E-score
1,ACGTCGCT,-0.117
2,GGTTCCAC,-0.0608
3,CGCCCGGA,0.0107
4,CTAGGTCA,-0.062
5,ATCGCTGG,-0.0128
6,ACGGCCCA,-0.228
7,CAGTCTAG,-0.112
8,AGTTTCCG,0.105
9,ATTGGGCA,-0.0742
10,GTTCAACA,0.156
11,AAACACCA,-0.00879
12,ACGTAGAA,-0.0137
13,ATCATCTC,-0.015
14,TGAATCAA,0.15
15,GTCCGTTA,0.199
16,ACCTTGTG,-0.213
17,ATAACAAA,0.312
18,ACAACTTA,0.0711
19,AGACAGGG,-0.229
20,GAAGGGCA,-0.122
21,CAGTCACC,-0.115
22,AAAATACA,0.0431
23,CGAATAGC,0.0486
24,ACGGGTCT,-0.252
25,AGGATTTC,0.101

row,Sequence,PBM E-score
1,ACTGCGCC,-0.176
2,ATGGAACC,-0.0448
3,AAGTAGCA,0.0365
4,CCTGTCAG,0.0622
5,CTATAACC,-0.04
6,CCATGCGG,-0.216
7,AGTTATTA,0.127
8,AAATTAAG,0.0523
9,CAGTGCTA,0.0113
10,CTTCCTGC,-0.219
11,ACATCGGA,0.0266
12,GTCATGCA,0.0469
13,CCCCCACG,-0.358
14,ATCTCTAC,0.0955
15,CACTGCCG,-0.0717
16,GACTTTAA,-0.0306
17,AGCCTGTG,-0.223
18,TGGCTGAA,-0.0767
19,AGGCCGAG,0.0768
20,CAGATCGA,0.125
21,ATGTCGGG,-0.0614
22,AATCACGT,0.184
23,CGCTAGCA,-0.0293
24,AACACTAA,0.12
25,AACAACTG,-0.0106

row,Sequence,PBM E-score
1,GGAAATGA,0.121
2,GATAAGGA,0.122
3,CCATCTAA,-0.0492
4,GGAATCAC,0.109
5,AGAGCACG,-0.134
6,GCACGAAC,0.135
7,CGCGTTAC,0.139
8,GACCTAGA,-0.106
9,CATAACGG,-0.00107
10,GTTAAAAC,-0.00321
11,TTCTAAAA,0.0693
12,GCGTGCAC,0.0421
13,TACTCTGA,-0.1
14,ATAATGCC,-0.00833
15,CATTTCCC,0.13
16,CGTCCTAA,-0.0443
17,GCTTTCCA,-0.00472
18,GGTTTTCA,0.197
19,ATGTCTAC,-0.0585
20,AAAAAACT,-0.0771
21,GATACATC,0.131
22,ATGTTGGA,0.197
23,CCTACTCG,-0.0435
24,CATAAACC,-0.0325
25,AGGTATGG,-0.152

row,Sequence,PBM E-score
1,AAGATGCC,-0.0381
2,CTCCAAAG,-0.193
3,AGGGGAAC,-0.229
4,ACTTTAGC,-0.184
5,CCTGAAAC,0.0798
6,CACTGATC,-0.0338
7,CGCCCTTA,0.0304
8,CTTTACCC,-0.0714
9,CGGCATGA,0.231
10,AGGGTGAA,-0.112
11,CATATTCA,0.108
12,GGAGACCA,-0.162
13,CTGCGTGC,0.0457
14,CCCTGCTC,-0.169
15,CCGGACGG,-0.0683
16,CTCTAGGC,-0.211
17,AGAAGGGA,-0.373
18,GGAGGTTA,-0.16
19,ACGGCCGC,0.159
20,GGAAGGGA,-0.336
21,CGGTCAGC,0.184
22,AAATTAGC,0.191
23,CACCTCCC,-0.195
24,GCCGAGCA,-0.0992
25,GTATATCA,0.139

row,Sequence,PBM E-score
1,AAAGAGGA,-0.107
2,AAACAACT,0.0358
3,ATACTGTA,0.139
4,CATTTGCC,-0.196
5,GACGTCTA,-0.158
6,ACAACCGG,0.0195
7,TTCTGAAA,0.109
8,CACTTCAA,0.0461
9,AATGATAC,0.0611
10,CGAGTACC,0.0589
11,AGGCGCAC,0.0699
12,GAGTTAGA,-0.088
13,AATAAAAA,0.264
14,ACCATAGG,-0.176
15,CGAAGTCG,0.102
16,CGACGTCG,0.0849
17,GACAGAGA,-0.0116
18,GATTATCA,0.1
19,AGTTGGCG,-0.0108
20,GATGGTAA,0.00239
21,CATGGGAA,-0.0667
22,ATGTACGG,0.0346
23,CTTGTGGA,-0.104
24,AGGTAGCA,-0.261
25,AGCAATAT,0.231

row,Sequence,PBM E-score
1,AGAGTCAA,-0.133
2,GGTAATAA,0.177
3,CTAATTAC,0.199
4,ACATGCTA,0.0138
5,CGAAGCCG,-0.0751
6,CGCGTTTA,-0.0475
7,AAGGAGAC,-0.154
8,GCCAGTTA,-0.0182
9,GGCGGACA,-0.0158
10,ACTCCCCG,0.0906
11,AATTGCCG,0.0765
12,GGTGACCA,-0.164
13,AGTCGTAT,-0.135
14,CGACCCTA,-0.0777
15,CTTAAATA,-0.0548
16,CGGTACGA,-0.129
17,GGCTTGGA,-0.116
18,CCGATGCG,-0.148
19,GCGTATCC,0.0519
20,CAAGTGTG,-0.0845
21,AAGGGGCT,0.0431
22,CCCACGCG,-0.182
